Assay results taken from patent US20170107282A1 (CELL MEDICA SWITZERLAND, published 2017).
No constants are given. Whether binding was seen depends on the method and setting. Some entries that bind do so weakly or less than the wild type.

Chains of the proteins cited; added tags and fusions are not shown. Lines headed by an entry give the natural chain unless they say otherwise; changes in a name come on top. A line that says so, or that is headed by a name, gives the form on record, which may keep a tag or linker.
transmembrane (tm) human TNF alpha, A1-12 variant, on CHO cells (P01375, form named): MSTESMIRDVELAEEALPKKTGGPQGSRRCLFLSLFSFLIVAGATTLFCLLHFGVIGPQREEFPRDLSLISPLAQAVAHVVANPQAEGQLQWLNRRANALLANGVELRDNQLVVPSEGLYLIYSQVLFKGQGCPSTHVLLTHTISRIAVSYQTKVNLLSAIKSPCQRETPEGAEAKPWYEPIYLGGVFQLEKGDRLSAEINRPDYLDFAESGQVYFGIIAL

Assays:
[1] = biological target: transmembrane (tm) human TNF alpha, A1-12 variant, on CHO cells (human) (UniProt P01375); assay: flow cytometry on tmTNF alpha-expressing CHO cells
[2] = biological target: transmembrane (tm) human TNF alpha, A1-12 variant, on CHO cells (human) (UniProt P01375); assay: flow cytometry on CHO cells expressing tmTNF alpha (refers back to Example 2)
[3] = biological target: transmembrane (tm) human TNF alpha, A1-12 variant, on CHO cells (human) (UniProt P01375); assay: flow cytometry on CHO cells expressing tmTNF alpha, biotinylated protein L and PE-streptavidin

Measured: binding

B1: scFv1 (scFv)
scFv: EIVMTQSPSTLSASVGDRVIITCQASQSISSYLAWYQQKPGKAPKLLIYWASTLASGVPSRFSGSGSGTEFTLTISSLQPDDFATYYCQSYYYTSNNSDGFWAFGQGTKLTVLGGGGGSGGGGSGGGGSGGGGSEVQLVESGGGLVQPGGSLRLSCKASGIDFSNSGITWVRQAPGKGLEWVGYIYPGFGIRNYANSVRGRFTISRDTSKNTVYLQMNSLRAEDTAVYYCARDPIYASSSGYADIWGQGTLVTVSS
binds: all assays above
